This is an account of results in the supplement of paper PMC11732987, “Enantioselective OTUD7B fragment discovery through chemoproteomics screening and high-throughput optimisation” (Communications Chemistry, 2025).

Amino acid sequences for entries named in this document (tags omitted). A change or cut given only in a name is not applied to a line headed by its entry. Residues count along the entry.
UniProt Q9HAP2: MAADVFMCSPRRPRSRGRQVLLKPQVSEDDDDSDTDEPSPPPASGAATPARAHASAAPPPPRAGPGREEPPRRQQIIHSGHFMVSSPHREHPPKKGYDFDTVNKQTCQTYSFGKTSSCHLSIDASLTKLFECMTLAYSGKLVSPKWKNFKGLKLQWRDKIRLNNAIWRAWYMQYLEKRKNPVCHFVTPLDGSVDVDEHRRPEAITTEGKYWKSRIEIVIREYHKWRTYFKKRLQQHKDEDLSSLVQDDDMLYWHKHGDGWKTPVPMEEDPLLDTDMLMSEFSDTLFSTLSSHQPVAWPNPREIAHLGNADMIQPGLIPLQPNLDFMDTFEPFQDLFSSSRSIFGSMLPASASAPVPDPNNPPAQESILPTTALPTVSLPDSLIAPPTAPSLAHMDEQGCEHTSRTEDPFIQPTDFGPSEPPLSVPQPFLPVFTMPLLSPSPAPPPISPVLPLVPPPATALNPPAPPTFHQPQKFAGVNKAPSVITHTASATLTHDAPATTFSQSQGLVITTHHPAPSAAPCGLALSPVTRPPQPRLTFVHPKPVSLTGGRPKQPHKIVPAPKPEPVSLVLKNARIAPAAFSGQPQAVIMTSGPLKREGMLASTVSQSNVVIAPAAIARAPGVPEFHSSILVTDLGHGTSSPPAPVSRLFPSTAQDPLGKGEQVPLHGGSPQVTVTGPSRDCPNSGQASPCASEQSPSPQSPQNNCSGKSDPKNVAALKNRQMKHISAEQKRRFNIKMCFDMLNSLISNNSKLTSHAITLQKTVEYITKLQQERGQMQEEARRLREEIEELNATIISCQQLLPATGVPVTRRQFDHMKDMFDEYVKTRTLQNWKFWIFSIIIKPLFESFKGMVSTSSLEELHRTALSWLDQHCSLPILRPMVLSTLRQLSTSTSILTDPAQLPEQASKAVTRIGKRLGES
UniProt Q7Z3U7: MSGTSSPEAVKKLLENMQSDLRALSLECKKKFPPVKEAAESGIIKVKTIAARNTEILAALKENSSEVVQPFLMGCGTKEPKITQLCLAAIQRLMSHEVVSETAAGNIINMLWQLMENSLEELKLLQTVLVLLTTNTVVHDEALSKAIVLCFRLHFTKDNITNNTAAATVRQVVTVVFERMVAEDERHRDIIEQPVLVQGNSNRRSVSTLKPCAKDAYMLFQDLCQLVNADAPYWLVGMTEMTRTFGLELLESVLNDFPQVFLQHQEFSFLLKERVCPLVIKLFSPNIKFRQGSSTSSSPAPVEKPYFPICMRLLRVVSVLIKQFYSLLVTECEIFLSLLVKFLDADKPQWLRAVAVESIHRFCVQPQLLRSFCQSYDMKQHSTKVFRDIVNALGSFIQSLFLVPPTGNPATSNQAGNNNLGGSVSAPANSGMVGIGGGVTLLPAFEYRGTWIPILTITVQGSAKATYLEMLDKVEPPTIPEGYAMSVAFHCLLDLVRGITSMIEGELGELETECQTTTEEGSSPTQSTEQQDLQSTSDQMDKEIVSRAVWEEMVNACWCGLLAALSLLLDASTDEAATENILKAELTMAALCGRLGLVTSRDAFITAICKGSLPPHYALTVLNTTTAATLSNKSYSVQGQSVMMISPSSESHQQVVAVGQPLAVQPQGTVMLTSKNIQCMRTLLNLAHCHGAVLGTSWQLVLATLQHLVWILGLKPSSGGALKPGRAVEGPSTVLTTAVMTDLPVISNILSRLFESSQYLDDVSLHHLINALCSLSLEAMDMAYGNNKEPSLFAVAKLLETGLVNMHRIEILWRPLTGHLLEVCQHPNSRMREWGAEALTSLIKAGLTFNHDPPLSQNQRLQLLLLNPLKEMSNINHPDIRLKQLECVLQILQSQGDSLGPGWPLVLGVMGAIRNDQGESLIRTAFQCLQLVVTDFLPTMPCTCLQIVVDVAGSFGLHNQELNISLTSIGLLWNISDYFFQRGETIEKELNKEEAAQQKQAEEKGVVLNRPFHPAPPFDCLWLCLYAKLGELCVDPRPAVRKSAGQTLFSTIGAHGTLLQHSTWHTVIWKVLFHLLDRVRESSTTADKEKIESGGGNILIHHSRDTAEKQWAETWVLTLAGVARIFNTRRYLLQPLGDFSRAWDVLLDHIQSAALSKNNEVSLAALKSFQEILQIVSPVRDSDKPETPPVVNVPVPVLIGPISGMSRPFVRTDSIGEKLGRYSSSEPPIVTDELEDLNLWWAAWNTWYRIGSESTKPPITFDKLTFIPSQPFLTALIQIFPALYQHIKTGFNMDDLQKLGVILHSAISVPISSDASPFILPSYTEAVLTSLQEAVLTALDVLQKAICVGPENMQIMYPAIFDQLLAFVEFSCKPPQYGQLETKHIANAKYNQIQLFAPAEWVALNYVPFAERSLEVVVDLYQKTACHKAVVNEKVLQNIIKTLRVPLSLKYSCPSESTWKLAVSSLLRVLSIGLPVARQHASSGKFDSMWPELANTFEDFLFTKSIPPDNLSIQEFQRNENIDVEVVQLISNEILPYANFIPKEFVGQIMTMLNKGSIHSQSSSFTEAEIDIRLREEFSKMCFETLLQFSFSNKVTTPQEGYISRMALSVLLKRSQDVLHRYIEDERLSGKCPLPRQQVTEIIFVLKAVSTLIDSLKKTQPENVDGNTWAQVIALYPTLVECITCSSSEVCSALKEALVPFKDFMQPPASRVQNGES
UniProt Q9NU22, 1108-1130: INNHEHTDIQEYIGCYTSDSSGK
UniProt Q86TA1: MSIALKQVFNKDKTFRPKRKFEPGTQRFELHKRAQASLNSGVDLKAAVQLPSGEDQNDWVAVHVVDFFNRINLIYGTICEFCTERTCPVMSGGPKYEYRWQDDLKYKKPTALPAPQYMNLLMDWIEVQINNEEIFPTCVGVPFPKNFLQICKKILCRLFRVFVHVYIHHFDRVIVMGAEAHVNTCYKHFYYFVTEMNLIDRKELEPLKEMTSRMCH
UniProt Q15014: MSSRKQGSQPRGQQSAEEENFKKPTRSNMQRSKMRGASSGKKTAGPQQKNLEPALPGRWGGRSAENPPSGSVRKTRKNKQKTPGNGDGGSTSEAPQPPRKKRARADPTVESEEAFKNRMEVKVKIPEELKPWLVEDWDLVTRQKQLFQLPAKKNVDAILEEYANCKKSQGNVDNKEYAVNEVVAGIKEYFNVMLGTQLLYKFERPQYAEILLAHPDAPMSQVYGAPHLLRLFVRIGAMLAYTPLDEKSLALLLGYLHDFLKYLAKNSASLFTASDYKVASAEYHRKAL
UniProt Q8IWI9: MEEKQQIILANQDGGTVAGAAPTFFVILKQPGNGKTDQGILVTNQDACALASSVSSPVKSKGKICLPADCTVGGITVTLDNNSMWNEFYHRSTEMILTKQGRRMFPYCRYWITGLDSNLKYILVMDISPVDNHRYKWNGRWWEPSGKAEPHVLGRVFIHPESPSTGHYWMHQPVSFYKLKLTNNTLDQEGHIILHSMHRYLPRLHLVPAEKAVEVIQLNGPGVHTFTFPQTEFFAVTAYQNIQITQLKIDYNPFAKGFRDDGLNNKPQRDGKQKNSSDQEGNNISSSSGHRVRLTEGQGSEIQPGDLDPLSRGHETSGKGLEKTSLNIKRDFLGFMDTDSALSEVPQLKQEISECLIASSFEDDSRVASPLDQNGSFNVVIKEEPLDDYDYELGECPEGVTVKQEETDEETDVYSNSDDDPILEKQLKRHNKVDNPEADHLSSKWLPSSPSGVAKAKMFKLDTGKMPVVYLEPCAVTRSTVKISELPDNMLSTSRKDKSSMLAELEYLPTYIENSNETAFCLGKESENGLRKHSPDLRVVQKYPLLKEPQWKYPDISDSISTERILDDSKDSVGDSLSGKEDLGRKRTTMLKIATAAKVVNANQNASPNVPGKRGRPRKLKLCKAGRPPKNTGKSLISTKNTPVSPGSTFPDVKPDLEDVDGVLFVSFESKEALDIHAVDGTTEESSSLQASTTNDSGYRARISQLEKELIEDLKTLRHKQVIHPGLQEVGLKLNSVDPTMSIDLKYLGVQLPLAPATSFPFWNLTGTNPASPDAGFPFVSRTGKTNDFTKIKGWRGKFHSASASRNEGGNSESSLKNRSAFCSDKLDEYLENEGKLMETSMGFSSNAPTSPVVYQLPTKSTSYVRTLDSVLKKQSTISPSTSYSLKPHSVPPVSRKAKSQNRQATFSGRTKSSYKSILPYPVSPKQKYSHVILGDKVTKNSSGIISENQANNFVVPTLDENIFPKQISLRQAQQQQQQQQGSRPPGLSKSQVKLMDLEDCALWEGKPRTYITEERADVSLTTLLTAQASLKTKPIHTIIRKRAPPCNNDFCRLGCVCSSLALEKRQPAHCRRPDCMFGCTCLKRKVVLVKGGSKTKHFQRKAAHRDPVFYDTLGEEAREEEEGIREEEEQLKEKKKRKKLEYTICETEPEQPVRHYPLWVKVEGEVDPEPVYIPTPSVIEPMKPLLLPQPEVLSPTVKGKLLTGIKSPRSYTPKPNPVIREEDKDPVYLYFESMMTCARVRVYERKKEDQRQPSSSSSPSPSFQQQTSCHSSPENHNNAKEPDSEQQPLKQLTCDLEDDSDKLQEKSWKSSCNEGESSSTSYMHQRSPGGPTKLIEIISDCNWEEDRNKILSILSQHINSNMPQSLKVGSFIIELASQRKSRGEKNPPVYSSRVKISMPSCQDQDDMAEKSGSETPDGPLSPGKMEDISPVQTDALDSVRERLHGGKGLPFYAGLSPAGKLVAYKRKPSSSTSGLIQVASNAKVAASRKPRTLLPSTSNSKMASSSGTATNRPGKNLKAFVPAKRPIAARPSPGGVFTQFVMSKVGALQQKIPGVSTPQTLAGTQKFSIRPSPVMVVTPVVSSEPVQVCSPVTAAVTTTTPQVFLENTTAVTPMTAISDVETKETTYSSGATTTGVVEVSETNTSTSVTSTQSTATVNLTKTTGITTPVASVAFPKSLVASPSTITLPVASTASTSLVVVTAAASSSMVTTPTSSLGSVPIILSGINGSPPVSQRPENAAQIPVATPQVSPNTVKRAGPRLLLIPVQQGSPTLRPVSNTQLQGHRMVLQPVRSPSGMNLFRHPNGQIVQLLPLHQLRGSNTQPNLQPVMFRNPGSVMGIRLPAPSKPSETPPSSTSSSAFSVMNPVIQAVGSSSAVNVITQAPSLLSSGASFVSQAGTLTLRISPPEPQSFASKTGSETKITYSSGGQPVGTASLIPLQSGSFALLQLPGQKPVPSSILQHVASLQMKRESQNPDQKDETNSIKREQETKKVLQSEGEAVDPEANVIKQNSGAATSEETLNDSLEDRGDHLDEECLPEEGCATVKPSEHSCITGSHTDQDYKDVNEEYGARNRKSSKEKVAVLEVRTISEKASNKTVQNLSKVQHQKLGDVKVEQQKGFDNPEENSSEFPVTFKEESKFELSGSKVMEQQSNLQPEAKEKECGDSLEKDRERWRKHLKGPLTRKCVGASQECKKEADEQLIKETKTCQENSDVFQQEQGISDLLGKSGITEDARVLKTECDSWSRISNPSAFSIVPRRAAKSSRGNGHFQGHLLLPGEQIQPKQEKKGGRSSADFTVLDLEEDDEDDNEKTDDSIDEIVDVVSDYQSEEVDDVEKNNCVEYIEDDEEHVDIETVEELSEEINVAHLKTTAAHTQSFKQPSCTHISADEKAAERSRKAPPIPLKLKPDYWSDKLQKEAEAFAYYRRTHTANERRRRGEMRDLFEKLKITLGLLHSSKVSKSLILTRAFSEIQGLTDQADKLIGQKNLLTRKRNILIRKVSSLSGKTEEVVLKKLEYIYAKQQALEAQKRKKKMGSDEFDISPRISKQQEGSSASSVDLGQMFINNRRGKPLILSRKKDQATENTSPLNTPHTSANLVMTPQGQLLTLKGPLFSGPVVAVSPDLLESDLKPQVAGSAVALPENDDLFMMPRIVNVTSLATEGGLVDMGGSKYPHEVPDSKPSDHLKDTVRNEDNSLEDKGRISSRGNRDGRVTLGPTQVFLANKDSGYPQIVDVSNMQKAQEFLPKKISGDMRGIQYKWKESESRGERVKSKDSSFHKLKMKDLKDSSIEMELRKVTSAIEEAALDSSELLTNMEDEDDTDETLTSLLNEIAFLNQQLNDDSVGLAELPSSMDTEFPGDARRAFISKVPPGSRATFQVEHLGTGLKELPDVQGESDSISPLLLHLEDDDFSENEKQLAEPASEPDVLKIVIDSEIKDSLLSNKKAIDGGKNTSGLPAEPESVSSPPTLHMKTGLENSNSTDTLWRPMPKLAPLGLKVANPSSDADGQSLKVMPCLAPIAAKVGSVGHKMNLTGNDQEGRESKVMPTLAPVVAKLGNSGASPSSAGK
UniProt Q9BU76: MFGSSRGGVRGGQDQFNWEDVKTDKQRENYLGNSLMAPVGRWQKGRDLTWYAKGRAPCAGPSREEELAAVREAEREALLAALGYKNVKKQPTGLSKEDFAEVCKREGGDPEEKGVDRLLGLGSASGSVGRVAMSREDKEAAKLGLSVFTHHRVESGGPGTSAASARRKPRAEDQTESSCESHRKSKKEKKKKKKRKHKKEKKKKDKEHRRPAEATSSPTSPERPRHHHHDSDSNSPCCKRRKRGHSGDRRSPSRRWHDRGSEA
UniProt Q7L2J0, 234-257: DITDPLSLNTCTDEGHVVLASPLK

This is one part of the list. The data scatter; read single values as rough.

Compound in one test: ClCC(=O)N[C@H]1CCCc2ccccc12
The test is described as follows: log2 mean competition ratio of IA-DTB cysteine labelling (DMSO/compound) (log2 ratio); higher = stronger cysteine engagement by compound. The note with it: 50 µM; treatment time: 4 h; cell line lysate: HEK293T. As for the experimental part: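 IA-DTB competitive cysteine chemoproteomics in HEK293T RIPA lysate. Lysates were treated with compound 29 or 30 at 50 or 200 µM for 4 h, then IA-DTB (500 µM, 1 h), trypsin-digested, NeutrAvidin-enriched and analysed by diaPASEF. Competition ratio = intensity DMSO / intensity compound (n=4 treated, n=64 DMSO); binding: mean log2 CR ≥ 1 and p ≤ 0.05 plus QC filters. Target is the cysteine site.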
Turning to MOV10 C16 (UniProt Q9HCE1), the “log2 mean competition ratio” value stood at 0.0263.

For the target MIOS C576 (UniProt Q9NXC5), the “log2 mean competition ratio” value was -0.259.

For MLXIP C8 (UniProt Q9HAP2), the “log2 mean competition ratio” value is -0.144.

As for MPP1 C179 (UniProt Q00013), the “log2 mean competition ratio” value was -0.119.

For the target MKRN1 C98 (UniProt Q9UHC7), the “log2 mean competition ratio” value is -0.0394.

As to MON2 C75 (UniProt Q7Z3U7), the “log2 mean competition ratio” value is -0.014.

Take MICU2 C8 (UniProt Q8IYU8): the “log2 mean competition ratio” value is -0.0128.

On to MIS12 C53 (UniProt Q9H081), for which the “log2 mean competition ratio” value was -0.468.

For MDN1 C3263 (UniProt Q9NU22), the “log2 mean competition ratio” value came to 0.285.

Consider MKI67 C1285 (UniProt P46013), for which the “log2 mean competition ratio” value amounted to 0.212.

MOB3B C87 (UniProt Q86TA1): the “log2 mean competition ratio” value was -0.0721.

Turning to MOB4 C119 (UniProt Q9Y3A3), the “log2 mean competition ratio” value was -0.15.

Regarding MIPEP C281 (UniProt Q99797), the “log2 mean competition ratio” value is -0.307.

On to MRC2 C1243 (UniProt Q9UBG0), for which the “log2 mean competition ratio” value worked out at 0.158.

Consider MORF4L2 C165 (UniProt Q15014), for which the “log2 mean competition ratio” value is -0.276.

Consider MDN1 C1122 (UniProt Q9NU22), for which the “log2 mean competition ratio” value is -0.418.

MRPL16 C167 (UniProt Q9NX20): the “log2 mean competition ratio” value was found to be 0.34.

As to MGA C1313 (UniProt Q8IWI9), the “log2 mean competition ratio” value was -0.184.

Take MMTAG2 C58 (UniProt Q9BU76): the “log2 mean competition ratio” value was -0.289.

On to MEPCE C244 (UniProt Q7L2J0), for which the “log2 mean competition ratio” value came to 0.119.

Still in this test, the particulars now being: 200 µM; treatment time: 4 h; cell line lysate: HEK293T.
Turning to MOV10 C16 (UniProt Q9HCE1), the “log2 mean competition ratio” value was 0.0556.

As for MIOS C576 (UniProt Q9NXC5), the “log2 mean competition ratio” value is 0.0931.

For the target MLXIP C8 (UniProt Q9HAP2), the “log2 mean competition ratio” value was 0.388.

Consider MPP1 C179 (UniProt Q00013), for which the “log2 mean competition ratio” value is -0.12.

Regarding MKRN1 C98 (UniProt Q9UHC7), the “log2 mean competition ratio” value is -0.0683.

For the target MON2 C75 (UniProt Q7Z3U7), the “log2 mean competition ratio” value is -0.196.

On to MICU2 C8 (UniProt Q8IYU8), for which the “log2 mean competition ratio” value was 0.289.

In the case of MIS12 C53 (UniProt Q9H081), the “log2 mean competition ratio” value is -0.209.

With MDN1 C3263 (UniProt Q9NU22), the “log2 mean competition ratio” value was -0.0553.

For MKI67 C1285 (UniProt P46013), the “log2 mean competition ratio” value is 0.217.

For the target MOB3B C87 (UniProt Q86TA1), the “log2 mean competition ratio” value came to 0.295.

Take MOB4 C119 (UniProt Q9Y3A3): the “log2 mean competition ratio” value is -0.129.

For MIPEP C281 (UniProt Q99797), the “log2 mean competition ratio” value was found to be 0.305.

As to MRC2 C1243 (UniProt Q9UBG0), the “log2 mean competition ratio” value was -0.101.

Turning to MORF4L2 C165 (UniProt Q15014), the “log2 mean competition ratio” value was 0.301.

Take MDN1 C1122 (UniProt Q9NU22): the “log2 mean competition ratio” value is -0.159.

Regarding MRPL16 C167 (UniProt Q9NX20), the “log2 mean competition ratio” value is -0.127.

As to MGA C1313 (UniProt Q8IWI9), the “log2 mean competition ratio” value was -0.0889.

MMTAG2 C58 (UniProt Q9BU76): the “log2 mean competition ratio” value worked out at 0.295.

Take MEPCE C244 (UniProt Q7L2J0): the “log2 mean competition ratio” value is -0.299.
